# According to article doi:10.1101/2023.10.01.560355:
# Protein sequences, listed by entry. Tags and fused reporters are not part of them.
# UniProt Q62093: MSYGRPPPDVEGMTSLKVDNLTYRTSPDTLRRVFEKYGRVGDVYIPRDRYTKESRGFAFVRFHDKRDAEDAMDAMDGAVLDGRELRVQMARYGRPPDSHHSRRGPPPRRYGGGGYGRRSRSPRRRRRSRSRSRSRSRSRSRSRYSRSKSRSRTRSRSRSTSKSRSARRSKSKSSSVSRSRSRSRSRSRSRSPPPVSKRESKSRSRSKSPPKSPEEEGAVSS
# No constants are given. Whether binding was seen depends on the method and setting. In cells and extracts the contact can be indirect. Here binding means that the protein was enriched with, or labelled near, the bait; the list need not be complete. Tags and fused reporters may be left off the sequences shown.
# T1: FBXO24-HA (F-Box Protein 24 with a C-terminal HA epitope tag, from Fbxo24-HA-tagged transgenic mice) (mouse) (UniProt Q9D417)
# T1 sequence: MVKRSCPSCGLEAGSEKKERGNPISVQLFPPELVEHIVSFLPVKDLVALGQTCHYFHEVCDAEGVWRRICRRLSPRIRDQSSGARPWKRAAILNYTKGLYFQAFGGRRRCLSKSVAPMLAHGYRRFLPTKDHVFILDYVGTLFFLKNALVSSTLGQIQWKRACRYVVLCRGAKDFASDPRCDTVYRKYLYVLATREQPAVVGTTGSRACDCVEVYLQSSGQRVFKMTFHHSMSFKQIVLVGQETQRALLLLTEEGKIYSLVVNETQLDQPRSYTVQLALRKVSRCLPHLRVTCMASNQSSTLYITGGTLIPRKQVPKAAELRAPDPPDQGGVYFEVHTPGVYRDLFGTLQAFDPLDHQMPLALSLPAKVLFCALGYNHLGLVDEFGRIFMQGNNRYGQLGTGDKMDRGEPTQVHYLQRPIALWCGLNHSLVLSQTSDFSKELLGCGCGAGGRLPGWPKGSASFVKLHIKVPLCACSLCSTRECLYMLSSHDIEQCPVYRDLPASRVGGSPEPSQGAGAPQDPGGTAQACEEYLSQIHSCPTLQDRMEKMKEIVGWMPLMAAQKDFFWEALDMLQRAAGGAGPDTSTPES
# Target: T1, FBXO24-HA (F-Box Protein 24 with a C-terminal HA epitope tag, from Fbxo24-HA-tagged transgenic mice) (mouse)
# Assay: affinity purification with mass spectrometry
row,Molecule,binding
1,SRSF2 (from UniProt Q62093 1-221),binds
2,"SRSF3 (protein, UniProt P84104 1-164) MHRDSCPLDCKVYVGNLGNNGNKTELERAFGYYGPLRSVWVARNPPGFAFVEFEDPRDAADAVRELDGRTLCGCRVRVELSNGEKRSRNRGPPPSWGRRPRDDYRRRSPPPRRRSPRRRSFSRSRSRSLSRDRRRERSLSRERNHKPSRSFSRSRSRSRSNERK",binds
